Consider 2 sequences from patent US20170028070.

For at least one entry, the source does not settle the construct or the ends of the probe.

Data set [1] concerns the target HER2 extracellular domain (UniProt P04626). The data set is described as follows: binding assay. Conditions: 5'-H2N-(CH2)6; CITED; method not stated; single-stranded DNA.
The next data set concerns thrombin. The data set is described as follows: binding assay. The settings on record: 5'-H2N-(CH2)6; CITED reported in the art; purified native protein; single-stranded DNA.

By Kd is commonly meant a measure of binding affinity in units of concentration. Low readings indicate a tighter complex, high ones a looser complex. In the case of “AACCGCCCAAATCCCTAAGAGTCTGCACTTGTCATTTTGTATATGTATTTGGTTTTTGGCTCTCACAGACACACTACACACGCACA [anti-HER2 aptamer]”, in data set [1], the Kd stood at 315 nM.

“AGTCCGTGGTAGGGCAGGTTGGGGTGACT [thrombin 29-mer aptamer]” returned a Kd in the data set with thrombin of 3.5 nM.
